No constants are given. Whether binding was seen depends on the method and setting. Binding seen in cells or lysates may run through a third protein. A yes stands for co-enrichment or nearness to the bait. Other partners may have been found.

One molecule from PMC10069049 can be followed below.

The target in the experiment is Flag-CDV H (H protein of CDV 851, pCA-Flag-H-WT) (canine distemper virus, strain 851). Put plainly: affinity purification with mass spectrometry.

B1: PDIA4 (protein, UniProt P13667 21-645)
chain: VAGAEGPDEDSSNRENAIEDEEEEEEEDDDEEEDDLEVKEENGVLVLNDANFDNFVADKDTVLLEFYAPWCGHCKQFAPEYEKIANILKDKDPPIPVAKIDATSASVLASRFDVSGYPTIKILKKGQAVDYEGSRTQEEIVAKVREVSQPDWTPPPEVTLVLTKENFDEVVNDADIILVEFYAPWCGHCKKLAPEYEKAAKELSKRSPPIPLAKVDATAETDLAKRFDVSGYPTLKIFRKGRPYDYNGPREKYGIVDYMIEQSGPPSKEILTLKQVQEFLKDGDDVIIIGVFKGESDPAYQQYQDAANNLREDYKFHHTFSTEIAKFLKVSQGQLVVMQPEKFQSKYEPRSHMMDVQGSTQDSAIKDFVLKYALPLVGHRKVSNDAKRYTRRPLVVVYYSVDFSFDYRAATQFWRSKVLEVAKDFPEYTFAIADEEDYAGEVKDLGLSESGEDVNAAILDESGKKFAMEPEEFDSDTLREFVTAFKKGKLKPVIKSQPVPKNNKGPVKVVVGKTFDSIVMDPKKDVLIEFYAPWCGHCKQLEPVYNSLAKKYKGQKGLVIAKMDATANDVPSDRYKVEGFPTIYFAPSGDKKNPVKFEGGDRDLEHLSKFIEEHATKLSRTKEEL
Turning to B1, the binding entry was “binds”.
